No constants are given. Whether binding was seen depends on the method and setting. Binding seen in cells or lysates may run through a third protein. Some results given as binding are weak or reduced against the parent protein; the word gives no strength.
Target: T1, Phosphoglycerate dehydrogenase (human (endogenous in U87 and U251)) (UniProt O43175)
T1 sequence: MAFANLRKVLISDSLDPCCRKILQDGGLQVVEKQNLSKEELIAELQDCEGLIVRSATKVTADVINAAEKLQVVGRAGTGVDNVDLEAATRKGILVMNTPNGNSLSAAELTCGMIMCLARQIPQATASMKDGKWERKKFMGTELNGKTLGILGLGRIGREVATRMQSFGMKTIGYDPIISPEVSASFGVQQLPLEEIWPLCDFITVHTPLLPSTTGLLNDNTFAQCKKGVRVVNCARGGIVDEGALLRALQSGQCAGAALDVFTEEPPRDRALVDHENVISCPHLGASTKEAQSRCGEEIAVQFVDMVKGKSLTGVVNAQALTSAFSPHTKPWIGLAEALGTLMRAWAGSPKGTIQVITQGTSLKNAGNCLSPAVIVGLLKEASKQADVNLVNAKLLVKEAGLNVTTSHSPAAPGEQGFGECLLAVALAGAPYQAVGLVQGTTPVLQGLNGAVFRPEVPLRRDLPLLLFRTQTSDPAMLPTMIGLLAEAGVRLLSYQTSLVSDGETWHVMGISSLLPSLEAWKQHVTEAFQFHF
Assay: co-IP; endogenous proteins in U87 and U251 cells; anti-PHGDH or anti-FOXM1 antibody; lysis in 62.5 mmol/L Tris-HCl (pH 6.8), 10 % glycerol; overnight with antibody, agarose A/G beads

binding: binds
B1: forkhead box M1 (protein, UniProt Q08050 1-763)
chain: MKTSPRRPLILKRRRLPLPVQNAPSETSEEEPKRSPAQQESNQAEASKEVAESNSCKFPAGIKIINHPTMPNTQVVAIPNNANIHSIITALTAKGKESGSSGPNKFILISCGGAPTQPPGLRPQTQTSYDAKRTEVTLETLGPKPAARDVNLPRPPGALCEQKRETCADGEAAGCTINNSLSNIQWLRKMSSDGLGSRSIKQEMEEKENCHLEQRQVKVEEPSRPSASWQNSVSERPPYSYMAMIQFAINSTERKRMTLKDIYTWIEDHFPYFKHIAKPGWKNSIRHNLSLHDMFVRETSANGKVSFWTIHPSANRYLTLDQVFKPLDPGSPQLPEHLESQQKRPNPELRRNMTIKTELPLGARRKMKPLLPRVSSYLVPIQFPVNQSLVLQPSVKVPLPLAASLMSSELARHSKRVRIAPKVLLAEEGIAPLSSAGPGKEEKLLFGEGFSPLLPVQTIKEEEIQPGEEMPHLARPIKVESPPLEEWPSPAPSFKEESSHSWEDSSQSPTPRPKKSYSGLRSPTRCVSEMLVIQHRERRERSRSRRKQHLLPPCVDEPELLFSEGPSTSRWAAELPFPADSSDPASQLSYSQEVGGPFKTPIKETLPISSTPSKSVLPRTPESWRLTPPAKVGGLDFSPVQTSQGASDPLPDPLGLMDLSTTPLQSAPPLESPQRLLSSEPLDLISVPFGNSSPSDIDVPKPGSPEPQVSGLAANRSLTEGLVLDTMNDSLSKILLDISFPGLDEDPLGPDNINWSQFIPELQ

From PMC3565087
